Assay results reported in publication doi:10.1101/338061.
Substitutions are numbered along the chain they refer to. For some of these results: Weaker means in comparison with the reference protein, sequence or condition of that experiment. Where a protein sequence is shown, tags need not be part of it. For some of these results: For at least one entry, the source does not settle the construct or the ends of the probe. For some of these results: At least one verdict rests on a figure or table, not on a statement of the authors.

Columns and labels:
MBD3 MBD (Homo sapiens) = molecular target: T1, MBD3 MBD (Homo sapiens) (UniProt O95983); assay: ITC; settings: residues 1-71
T1 sequence (looked up): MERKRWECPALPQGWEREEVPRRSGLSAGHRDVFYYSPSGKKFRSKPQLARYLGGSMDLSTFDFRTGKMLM

MBD4 MBD (Homo sapiens) = molecular target: T2, MBD4 MBD (Homo sapiens) (UniProt O95243); assay: ITC; settings: 5hmC at position 6 of both strands; residues 55-152
T2 sequence (looked up): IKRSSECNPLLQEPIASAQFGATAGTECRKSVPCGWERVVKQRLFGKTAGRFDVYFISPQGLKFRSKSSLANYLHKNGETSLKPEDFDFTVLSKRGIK

MBD1 MBD (Homo sapiens) = molecular target: T3, MBD1 MBD (Homo sapiens) (UniProt Q9UIS9); assay: ITC; settings: 5hmC at position 6 of both strands; residues 1-77
T3 sequence (looked up): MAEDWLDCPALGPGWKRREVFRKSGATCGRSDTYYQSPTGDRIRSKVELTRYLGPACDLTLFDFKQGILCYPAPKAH

[1] = molecular target: T4, MBD3 MBD F34Y (Homo sapiens) (UniProt O95983); assay: ITC; settings: 5mC at position 6 of both strands; residues 1-71
T4 sequence (looked up): T1 sequence (looked up) with F34Y

[2] = molecular target: T5, MBD3 MBD (crystallization) (Homo sapiens) (UniProt O95983); assay: crystal structure; settings: 5mC at position 6 of both strands; residues 1-71
T5 sequence (looked up): T1 sequence (looked up)

Q: For GCCAACGCTGGC (double strand) [AmCGC], which Kd (MBD3 MBD (Homo sapiens); 5mC at position 6 of both strands) is on record?
A: 3700 nM

Q: Does GCCAGCGCTGGC (double strand) [hmCG] bind (MBD4 MBD (Homo sapiens))?
A: binds more weakly

Q: Does GCCAGCGCTGGC (double strand) [hmCG] bind (MBD1 MBD (Homo sapiens))?
A: binds more weakly

Q: Does GCCAGCGCTGGC (double strand) [hmCG] bind (MBD3 MBD (Homo sapiens); 5hmC at position 6 of both strands)?
A: binds more weakly

Q: Which results are given for GCCAGCGCTGGC (double strand) [GmCGC]?
A: Kd [1]: 400 nM; binding result [2]: binds

Q: Does “GCCAACGTTGGC (double strand) [AmCGT (mCG)]” bind [2]?
A: binds
